Experimental data reported in the supplement of paper PMC10849652.
This is one part of the list.

Amino acid sequences for entries named in this document (tags omitted). A change or cut given only in a name is not applied to a line headed by its entry.
UniProt Q9BUB5: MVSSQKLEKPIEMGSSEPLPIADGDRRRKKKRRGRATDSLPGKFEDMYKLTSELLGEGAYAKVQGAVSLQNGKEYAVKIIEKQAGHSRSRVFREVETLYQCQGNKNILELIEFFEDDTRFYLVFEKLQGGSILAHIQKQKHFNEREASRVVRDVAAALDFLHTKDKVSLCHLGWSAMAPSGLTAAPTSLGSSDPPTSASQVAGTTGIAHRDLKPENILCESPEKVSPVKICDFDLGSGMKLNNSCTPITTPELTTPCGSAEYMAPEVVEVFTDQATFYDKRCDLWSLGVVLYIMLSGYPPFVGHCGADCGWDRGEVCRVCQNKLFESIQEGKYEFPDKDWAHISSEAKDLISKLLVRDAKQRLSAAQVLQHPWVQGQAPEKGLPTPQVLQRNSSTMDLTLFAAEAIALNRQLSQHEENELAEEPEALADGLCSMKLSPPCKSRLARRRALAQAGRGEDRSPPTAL
UniProt Q00013: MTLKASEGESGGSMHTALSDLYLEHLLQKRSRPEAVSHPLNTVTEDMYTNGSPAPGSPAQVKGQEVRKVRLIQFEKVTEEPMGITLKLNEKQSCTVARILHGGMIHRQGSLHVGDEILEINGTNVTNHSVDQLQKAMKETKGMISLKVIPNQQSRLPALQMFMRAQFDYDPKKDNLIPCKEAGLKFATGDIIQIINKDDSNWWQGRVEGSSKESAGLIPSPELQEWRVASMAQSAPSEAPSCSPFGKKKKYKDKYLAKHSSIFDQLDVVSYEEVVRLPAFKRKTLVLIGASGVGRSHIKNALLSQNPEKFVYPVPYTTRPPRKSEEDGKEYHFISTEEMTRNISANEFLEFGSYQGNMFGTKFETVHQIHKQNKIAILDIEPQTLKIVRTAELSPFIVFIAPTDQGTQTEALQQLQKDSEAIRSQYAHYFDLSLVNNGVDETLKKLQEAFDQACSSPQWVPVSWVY
UniProt P14174: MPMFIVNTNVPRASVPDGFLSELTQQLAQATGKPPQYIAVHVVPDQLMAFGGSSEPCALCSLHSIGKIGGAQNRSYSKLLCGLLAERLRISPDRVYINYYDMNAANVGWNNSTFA
UniProt Q96PC5: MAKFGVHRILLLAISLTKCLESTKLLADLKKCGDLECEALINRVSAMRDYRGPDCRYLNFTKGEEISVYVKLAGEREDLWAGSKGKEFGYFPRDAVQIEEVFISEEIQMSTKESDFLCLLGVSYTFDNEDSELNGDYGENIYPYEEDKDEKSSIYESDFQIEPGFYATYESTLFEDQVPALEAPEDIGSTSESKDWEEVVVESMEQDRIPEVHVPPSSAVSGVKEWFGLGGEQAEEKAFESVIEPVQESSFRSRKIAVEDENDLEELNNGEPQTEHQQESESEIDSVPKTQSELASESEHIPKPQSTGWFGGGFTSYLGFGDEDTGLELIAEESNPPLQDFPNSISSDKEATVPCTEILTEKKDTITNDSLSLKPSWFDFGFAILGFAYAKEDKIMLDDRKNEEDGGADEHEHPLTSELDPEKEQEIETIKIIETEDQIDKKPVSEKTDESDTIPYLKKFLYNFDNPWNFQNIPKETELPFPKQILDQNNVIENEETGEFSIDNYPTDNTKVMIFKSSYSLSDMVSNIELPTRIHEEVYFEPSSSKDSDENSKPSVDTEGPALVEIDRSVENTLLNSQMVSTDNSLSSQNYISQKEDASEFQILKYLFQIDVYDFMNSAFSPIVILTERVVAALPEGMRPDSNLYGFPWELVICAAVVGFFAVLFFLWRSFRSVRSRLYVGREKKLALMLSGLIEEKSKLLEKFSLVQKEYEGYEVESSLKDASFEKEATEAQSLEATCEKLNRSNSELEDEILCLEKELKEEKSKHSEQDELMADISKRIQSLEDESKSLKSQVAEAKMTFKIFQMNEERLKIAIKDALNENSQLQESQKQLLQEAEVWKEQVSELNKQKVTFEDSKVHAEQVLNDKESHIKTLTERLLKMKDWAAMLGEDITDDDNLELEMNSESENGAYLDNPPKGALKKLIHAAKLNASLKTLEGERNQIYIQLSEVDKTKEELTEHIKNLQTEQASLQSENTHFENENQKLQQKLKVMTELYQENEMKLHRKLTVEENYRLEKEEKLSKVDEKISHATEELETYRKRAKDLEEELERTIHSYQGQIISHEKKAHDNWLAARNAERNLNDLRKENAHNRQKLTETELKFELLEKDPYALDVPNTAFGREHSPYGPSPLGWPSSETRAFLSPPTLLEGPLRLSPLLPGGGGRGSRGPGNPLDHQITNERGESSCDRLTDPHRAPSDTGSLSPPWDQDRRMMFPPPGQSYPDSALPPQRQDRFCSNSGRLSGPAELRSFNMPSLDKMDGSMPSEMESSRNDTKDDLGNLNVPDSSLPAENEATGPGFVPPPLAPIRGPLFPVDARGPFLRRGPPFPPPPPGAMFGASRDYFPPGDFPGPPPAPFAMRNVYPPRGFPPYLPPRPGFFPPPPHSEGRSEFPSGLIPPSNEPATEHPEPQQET
UniProt Q9HAP2: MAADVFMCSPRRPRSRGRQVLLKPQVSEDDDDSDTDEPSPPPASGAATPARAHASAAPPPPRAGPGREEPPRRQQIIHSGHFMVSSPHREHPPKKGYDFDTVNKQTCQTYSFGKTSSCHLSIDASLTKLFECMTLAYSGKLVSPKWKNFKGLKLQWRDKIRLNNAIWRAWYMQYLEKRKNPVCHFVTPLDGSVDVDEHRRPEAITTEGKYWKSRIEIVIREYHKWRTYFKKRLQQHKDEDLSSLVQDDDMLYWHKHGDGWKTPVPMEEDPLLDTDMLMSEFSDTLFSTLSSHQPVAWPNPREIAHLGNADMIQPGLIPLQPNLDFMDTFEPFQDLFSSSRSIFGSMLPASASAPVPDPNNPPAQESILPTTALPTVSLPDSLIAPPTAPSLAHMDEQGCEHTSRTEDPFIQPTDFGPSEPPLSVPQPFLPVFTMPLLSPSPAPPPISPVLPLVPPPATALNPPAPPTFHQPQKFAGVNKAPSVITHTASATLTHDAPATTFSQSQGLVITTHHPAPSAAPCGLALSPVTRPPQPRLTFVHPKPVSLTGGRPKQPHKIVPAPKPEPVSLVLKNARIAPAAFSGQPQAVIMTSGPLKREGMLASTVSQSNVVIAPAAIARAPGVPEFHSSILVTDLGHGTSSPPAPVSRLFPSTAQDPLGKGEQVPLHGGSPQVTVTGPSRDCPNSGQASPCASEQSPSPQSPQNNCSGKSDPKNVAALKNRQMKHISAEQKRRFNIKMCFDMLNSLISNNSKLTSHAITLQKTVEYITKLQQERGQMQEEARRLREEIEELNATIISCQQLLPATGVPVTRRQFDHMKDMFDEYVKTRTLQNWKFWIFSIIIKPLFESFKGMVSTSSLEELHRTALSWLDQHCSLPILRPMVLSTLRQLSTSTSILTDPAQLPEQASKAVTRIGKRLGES
UniProt P08473: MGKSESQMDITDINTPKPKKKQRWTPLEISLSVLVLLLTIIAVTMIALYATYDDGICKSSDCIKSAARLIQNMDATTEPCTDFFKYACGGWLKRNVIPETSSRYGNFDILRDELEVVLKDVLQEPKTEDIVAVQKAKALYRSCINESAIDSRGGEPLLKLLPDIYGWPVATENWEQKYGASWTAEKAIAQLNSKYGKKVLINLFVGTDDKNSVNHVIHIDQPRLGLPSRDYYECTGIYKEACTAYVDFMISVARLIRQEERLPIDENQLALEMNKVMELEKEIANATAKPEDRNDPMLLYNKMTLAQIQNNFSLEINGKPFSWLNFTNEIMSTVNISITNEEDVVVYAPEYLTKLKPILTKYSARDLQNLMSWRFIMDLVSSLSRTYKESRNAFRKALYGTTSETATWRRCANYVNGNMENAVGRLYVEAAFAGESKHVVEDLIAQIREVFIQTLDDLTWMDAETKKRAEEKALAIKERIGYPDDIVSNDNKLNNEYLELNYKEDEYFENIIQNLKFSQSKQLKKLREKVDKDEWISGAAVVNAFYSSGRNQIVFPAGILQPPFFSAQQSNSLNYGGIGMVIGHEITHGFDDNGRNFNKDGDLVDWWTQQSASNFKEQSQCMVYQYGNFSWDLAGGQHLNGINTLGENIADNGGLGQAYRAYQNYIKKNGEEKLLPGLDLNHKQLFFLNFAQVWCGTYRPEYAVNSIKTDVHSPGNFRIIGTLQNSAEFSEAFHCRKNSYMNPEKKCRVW
UniProt Q8TAP9: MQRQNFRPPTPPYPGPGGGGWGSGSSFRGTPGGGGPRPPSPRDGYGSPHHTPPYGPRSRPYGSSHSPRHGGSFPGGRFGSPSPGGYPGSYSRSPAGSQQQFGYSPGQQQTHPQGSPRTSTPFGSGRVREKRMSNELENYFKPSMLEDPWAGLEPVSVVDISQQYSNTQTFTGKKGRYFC
UniProt Q9NZW5: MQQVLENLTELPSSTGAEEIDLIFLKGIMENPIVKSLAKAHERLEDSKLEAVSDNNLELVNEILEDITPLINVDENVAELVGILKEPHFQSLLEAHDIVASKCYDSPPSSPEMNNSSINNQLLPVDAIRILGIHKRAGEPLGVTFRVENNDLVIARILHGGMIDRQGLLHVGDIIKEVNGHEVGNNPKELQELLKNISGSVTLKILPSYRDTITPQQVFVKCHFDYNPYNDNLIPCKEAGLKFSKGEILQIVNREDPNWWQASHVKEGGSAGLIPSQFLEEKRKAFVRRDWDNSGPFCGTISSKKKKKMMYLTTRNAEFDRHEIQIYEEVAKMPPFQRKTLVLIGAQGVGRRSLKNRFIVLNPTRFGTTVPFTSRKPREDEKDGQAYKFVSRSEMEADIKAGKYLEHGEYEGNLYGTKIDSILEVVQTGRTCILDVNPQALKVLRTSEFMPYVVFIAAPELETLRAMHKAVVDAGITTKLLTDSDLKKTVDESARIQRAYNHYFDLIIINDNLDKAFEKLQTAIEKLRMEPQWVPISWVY
UniProt P49959: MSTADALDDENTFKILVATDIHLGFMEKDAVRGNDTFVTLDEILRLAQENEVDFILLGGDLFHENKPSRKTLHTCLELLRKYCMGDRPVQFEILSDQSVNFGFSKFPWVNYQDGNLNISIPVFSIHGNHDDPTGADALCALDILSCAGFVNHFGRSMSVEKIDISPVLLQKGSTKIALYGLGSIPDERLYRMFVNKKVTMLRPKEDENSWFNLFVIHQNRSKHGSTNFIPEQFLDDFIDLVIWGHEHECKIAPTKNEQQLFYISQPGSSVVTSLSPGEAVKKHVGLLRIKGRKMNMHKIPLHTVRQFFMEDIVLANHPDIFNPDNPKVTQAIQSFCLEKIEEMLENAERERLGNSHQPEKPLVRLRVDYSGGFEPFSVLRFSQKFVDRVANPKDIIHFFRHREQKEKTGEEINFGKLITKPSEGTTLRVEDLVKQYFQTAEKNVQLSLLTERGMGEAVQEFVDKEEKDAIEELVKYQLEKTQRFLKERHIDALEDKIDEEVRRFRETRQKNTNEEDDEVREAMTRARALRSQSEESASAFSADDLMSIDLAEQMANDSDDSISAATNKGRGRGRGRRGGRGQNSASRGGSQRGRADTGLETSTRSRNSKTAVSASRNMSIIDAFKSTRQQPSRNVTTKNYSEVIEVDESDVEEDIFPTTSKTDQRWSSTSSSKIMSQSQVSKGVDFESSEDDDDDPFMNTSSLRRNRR
UniProt P26572: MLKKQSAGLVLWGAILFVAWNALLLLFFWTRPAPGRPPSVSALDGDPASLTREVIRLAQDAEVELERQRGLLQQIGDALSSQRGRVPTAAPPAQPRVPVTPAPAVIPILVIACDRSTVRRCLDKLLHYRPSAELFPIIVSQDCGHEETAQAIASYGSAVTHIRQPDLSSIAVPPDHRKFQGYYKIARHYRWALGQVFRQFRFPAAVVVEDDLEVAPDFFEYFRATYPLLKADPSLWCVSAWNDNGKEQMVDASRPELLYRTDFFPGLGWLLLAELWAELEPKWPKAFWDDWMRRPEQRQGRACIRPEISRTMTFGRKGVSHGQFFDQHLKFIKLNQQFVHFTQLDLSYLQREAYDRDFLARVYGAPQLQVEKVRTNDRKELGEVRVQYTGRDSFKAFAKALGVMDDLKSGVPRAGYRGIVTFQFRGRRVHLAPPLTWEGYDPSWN
UniProt Q9UBU8, whole entry, looked up: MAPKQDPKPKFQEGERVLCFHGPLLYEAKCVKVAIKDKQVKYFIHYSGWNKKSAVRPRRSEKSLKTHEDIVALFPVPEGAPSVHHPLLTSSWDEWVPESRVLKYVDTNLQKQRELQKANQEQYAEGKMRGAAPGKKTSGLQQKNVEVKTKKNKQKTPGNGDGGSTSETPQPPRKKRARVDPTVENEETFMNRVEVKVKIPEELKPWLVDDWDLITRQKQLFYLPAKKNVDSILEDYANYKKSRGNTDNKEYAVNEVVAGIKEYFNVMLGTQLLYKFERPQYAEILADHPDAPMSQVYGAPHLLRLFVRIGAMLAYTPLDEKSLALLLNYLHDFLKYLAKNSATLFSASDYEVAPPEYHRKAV
UniProt Q70IA6: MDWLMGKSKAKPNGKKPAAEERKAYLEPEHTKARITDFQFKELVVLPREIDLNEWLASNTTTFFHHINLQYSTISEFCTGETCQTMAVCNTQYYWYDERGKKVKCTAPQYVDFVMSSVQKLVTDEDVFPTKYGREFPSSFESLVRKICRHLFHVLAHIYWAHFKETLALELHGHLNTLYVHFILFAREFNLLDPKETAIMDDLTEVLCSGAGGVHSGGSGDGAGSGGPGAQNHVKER

How the values were obtained:
Assay in all cases: log2 fold change, soluble protein after heating vs DMSO (PISA); higher = thermal stabilisation; K562 lysate, 10 uM; active = over 0.2 and 3.5 SD of the protein, either way, in both replicates (recomputed)
nilotinib = compound: Cc1cn(-c2cc(NC(=O)c3ccc(C)c(Nc4nccc(-c5cccnc5)n4)c3)cc(C(F)(F)F)c2)cn1 [nilotinib]
Outline: (§1)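 Pellets of K562 cells were dounce-homogenised in PBS pH 7.4 with 1 mM MgCl2, and the crude extract was held at 1 mg/mL protein for a 30 min treatment with 10 μM compound. Aliquots were heated for 3 min over 48°C-58°C and pooled before NP-40 was added to 0.5% at 4°C. The supernatant from 21,000xg for 90 min was quantified by TMTpro 16plex LC-MS/MS with channel sums equalised. Values are reported from duplicates as log-two fold change in thermal stability relative to solvent controls.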

[1] = compound: Cc1nc(Nc2n[nH]c3c2CN(C(=O)N[C@H](CN(C)C)c2ccccc2)C3(C)C)c2sccc2n1
Outline: as §1

dasatinib = compound: Cc1nc(Nc2ncc(C(=O)Nc3c(C)cccc3Cl)s2)cc(N2CCN(CCO)CC2)n1 [dasatinib]
Outline: as §1

[2] = compound: Cc1ncc(-c2ccnc(Nc3ccc(S(C)(=O)=O)cc3)n2)n1C(C)C
Outline: as §1

[3] = compound: Cn1cc(-c2ccc3c(c2)CCN3C(=O)Cc2cccc(C(F)(F)F)c2)c2c(N)ncnc21
Outline: as §1

quisinostat = compound: Cn1cc(CNCC2CCN(c3ncc(C(=O)NO)cn3)CC2)c2ccccc21 [quisinostat]
Outline: as §1

tipifarnib = compound: Cn1cncc1[C@@](N)(c1ccc(Cl)cc1)c1ccc2c(c1)c(-c1cccc(Cl)c1)cc(=O)n2C [tipifarnib]
Outline: as §1

[4] = compound: NC(=O)Nc1cc(-c2cccc(F)c2)sc1C(=O)N[C@H]1CCCNC1
Outline: as §1

[5] = compound: NC(=O)c1cnc(N[C@@H]2CCCC[C@@H]2N)nc1Nc1cccc(-n2nccn2)c1
Outline: as §1

[6] = compound: NC1(c2ccc(-c3nc4ccn5c(=O)[nH]nc5c4cc3-c3ccccc3)cc2)CCC1
Outline: as §1

Measured: log2 fold change

MKNK1 (UniProt Q9BUB5)
inactive: nilotinib 0.009 | [1] 0 | dasatinib -0.054 | [2] -0.017 | [3] 0.019 | quisinostat 0 | tipifarnib 0.001 | [4] 0.024 | [5] 0.012 | [6] -0.001

MPP1 (UniProt Q00013)
inactive: nilotinib -0.017 | [1] -0.014 | dasatinib -0.011 | [2] 0.011 | [3] 0.007 | quisinostat 0.017 | tipifarnib 0 | [4] 0.024 | [5] 0.017 | [6] 0

MIF (UniProt P14174)
inactive: nilotinib 0.036 | [1] -0.042 | dasatinib 0.001 | [2] -0.007 | [3] -0.009 | quisinostat 0.058 | tipifarnib 0.061 | [4] 0.035 | [5] 0 | [6] 0.033

MMS19 isoform 8 (UniProt Q96T76)
inactive: nilotinib -0.014 | [1] 0.019 | dasatinib -0.043 | [2] 0.018 | [3] -0.011 | quisinostat -0.056 | tipifarnib -0.002 | [4] 0.053 | [5] 0.014 | [6] 0.004

MIA2 (UniProt Q96PC5)
inactive: nilotinib 0.04 | [1] -0.003 | dasatinib -0.031 | [2] 0.067 | [3] 0.013 | quisinostat -0.054 | tipifarnib -0.057 | [4] 0.042 | [5] 0.007 | [6] 0.042

MPHOSPH10 (UniProt O00566)
inactive: nilotinib -0.051 | [1] 0.033 | dasatinib -0.001 | [2] -0.078 | [3] 0.082 | quisinostat 0.006 | tipifarnib -0.057 | [4] 0.026 | [5] -0.039 | [6] -0.064

MOB3A (UniProt Q96BX8)
inactive: nilotinib -0.002 | [1] -0.002 | dasatinib 0.013 | [2] -0.038 | [3] 0.04 | quisinostat 0.042 | tipifarnib 0.034 | [4] 0.018 | [5] 0.011 | [6] -0.06

MLXIP (UniProt Q9HAP2)
inactive: nilotinib 0.09 | [1] 0.003 | dasatinib -0.068 | [2] 0.003 | [3] 0.02 | quisinostat -0.04 | tipifarnib 0 | [4] 0.082 | [5] -0.01 | [6] -0.028

MMGT1 (UniProt Q8N4V1)
inactive: nilotinib -0.028 | [1] 0.034 | dasatinib 0.004 | [2] 0.001 | [3] 0.009 | quisinostat -0.022 | tipifarnib 0.006 | [4] 0 | [5] 0.01 | [6] -0.023

MIF4GD isoform 3 (UniProt A9UHW6)
inactive: nilotinib -0.036 | [1] 0.031 | dasatinib 0.056 | [2] -0.015 | [3] 0.039 | quisinostat -0.04 | tipifarnib 0.016 | [4] 0.052 | [5] -0.032 | [6] -0.007

MME (UniProt P08473)
inactive: nilotinib -0.09 | [1] 0.082 | [2] 0.021 | [3] 0.104 | quisinostat -0.02 | tipifarnib -0.031 | [4] 0.085 | [5] 0.061 | [6] -0.014
active: dasatinib -0.513

MMUT (UniProt P22033)
inactive: nilotinib -0.003 | [1] -0.021 | dasatinib 0.002 | [2] -0.019 | [3] 0.021 | quisinostat 0.053 | tipifarnib 0.046 | [4] 0.014 | [5] 0.039 | [6] -0.004

MPLKIP (UniProt Q8TAP9)
inactive: nilotinib 0.034 | [1] -0.075 | dasatinib -0.068 | [2] -0.101 | [3] 0.003 | quisinostat -0.117 | tipifarnib -0.046 | [4] 0.005 | [5] 0.004 | [6] -0.062

MICAL3 (UniProt Q7RTP6)
inactive: nilotinib 0.021 | [1] 0.022 | dasatinib -0.003 | [2] -0.012 | [3] 0.004 | quisinostat -0.012 | tipifarnib -0.002 | [4] -0.003 | [5] 0.026 | [6] -0.011

MON1A (UniProt Q86VX9)
inactive: nilotinib 0.042 | [1] 0.015 | dasatinib -0.015 | [2] 0.057 | [3] 0.014 | quisinostat 0.01 | tipifarnib 0.025 | [4] 0.04 | [5] -0.008 | [6] 0.011

MPP6 (UniProt Q9NZW5)
inactive: nilotinib -0.023 | [1] 0.022 | dasatinib -0.05 | [2] -0.008 | [3] -0.004 | quisinostat -0.032 | tipifarnib 0.003 | [4] 0 | [5] 0.019 | [6] -0.036

MPRIP isoform 2 (UniProt Q6WCQ1)
inactive: nilotinib 0.032 | [1] -0.023 | dasatinib 0.02 | [2] 0.024 | [3] -0.044 | quisinostat -0.062 | tipifarnib 0.012 | [4] 0.001 | [5] -0.021 | [6] 0.059

MICAL2 (UniProt O94851)
inactive: nilotinib 0.087 | [1] 0.034 | dasatinib -0.12 | [2] 0.077 | [3] -0.083 | quisinostat -0.022 | tipifarnib -0.045 | [4] 0.033 | [5] 0.167 | [6] 0.033

MRPL20 (UniProt Q9BYC9)
inactive: nilotinib -0.059 | [1] -0.04 | dasatinib -0.083 | [2] 0.006 | [3] 0.053 | quisinostat -0.024 | tipifarnib -0.018 | [4] 0.023 | [5] 0.086 | [6] -0.058

2 consecutive records from above, quoted:
MICAL2 (UniProt O94851)
inactive: nilotinib 0.087 | [1] 0.034 | dasatinib -0.12 | [2] 0.077 | [3] -0.083 | quisinostat -0.022 | tipifarnib -0.045 | [4] 0.033 | [5] 0.167 | [6] 0.033

MRPL20 (UniProt Q9BYC9)
inactive: nilotinib -0.059 | [1] -0.04 | dasatinib -0.083 | [2] 0.006 | [3] 0.053 | quisinostat -0.024 | tipifarnib -0.018 | [4] 0.023 | [5] 0.086 | [6] -0.058

Continued:

MRE11 isoform 3 (UniProt P49959)
inactive: nilotinib 0.001 | [1] 0.032 | dasatinib 0.095 | [2] 0.008 | [3] 0.037 | quisinostat 0.013 | tipifarnib 0.012 | [4] -0.01 | [5] -0.002 | [6] -0.002

MIEF1 (UniProt L0R8F8)
inactive: nilotinib -0.062 | [1] 0.025 | dasatinib -0.057 | [2] -0.037 | [3] 0.022 | quisinostat 0.053 | tipifarnib -0.147 | [4] -0.085 | [5] 0.009 | [6] -0.013

MPC2 (UniProt O95563)
inactive: nilotinib 0.026 | [1] -0.01 | dasatinib -0.006 | [2] 0.01 | [3] 0 | quisinostat -0.068 | tipifarnib -0.006 | [4] 0.042 | [5] 0.008 | [6] 0.027

MOB3B (UniProt Q86TA1)
inactive: nilotinib 0.076 | [1] -0.009 | dasatinib -0.021 | [2] 0.066 | [3] -0.041 | quisinostat -0.083 | tipifarnib 0.078 | [4] 0.035 | [5] 0.05 | [6] -0.01

MRPL17 (UniProt Q9NRX2)
inactive: nilotinib -0.031 | [1] 0.001 | dasatinib -0.013 | [2] -0.095 | [3] 0.046 | quisinostat 0.046 | tipifarnib 0.006 | [4] 0 | [5] -0.008 | [6] 0.014

MGAT1 (UniProt P26572)
inactive: nilotinib -0.032 | [1] -0.003 | dasatinib -0.037 | [2] 0.004 | [3] 0.088 | quisinostat 0.003 | tipifarnib -0.186 | [4] 0.023 | [5] 0.083 | [6] 0.056

MGA (UniProt Q8IWI9)
inactive: nilotinib 0.043 | [1] 0.014 | dasatinib -0.193 | [2] -0.19 | [3] 0.007 | quisinostat -0.165 | tipifarnib -0.046 | [4] 0.018 | [5] -0.083 | [6] -0.096

MRPL19 (UniProt P49406)
inactive: nilotinib 0.001 | [1] -0.015 | dasatinib -0.039 | [2] -0.004 | [3] 0.005 | quisinostat -0.055 | tipifarnib 0.033 | [4] 0.024 | [5] -0.018 | [6] -0.044

MORF4L1 isoform 2 (UniProt Q9UBU8)
inactive: nilotinib 0.037 | [1] 0.069 | dasatinib -0.013 | [2] -0.009 | [3] 0 | quisinostat 0 | tipifarnib -0.009 | [4] -0.007 | [5] -0.008 | [6] -0.018

MOB2 isoform 3 (UniProt Q70IA6)
inactive: nilotinib 0.002 | [1] 0.031 | dasatinib -0.049 | [2] 0.009 | [3] 0.047 | quisinostat -0.068 | tipifarnib 0.068 | [4] 0.034 | [5] 0.046 | [6] -0.025

MPV17L2 (UniProt Q567V2)
inactive: nilotinib 0.022 | [1] -0.002 | dasatinib 0.002 | [2] 0.036 | [3] 0.013 | quisinostat -0.066 | tipifarnib 0.016 | [4] 0 | [5] -0.019 | [6] 0.005
